PubChem BioAssay AID1224830, NIAID – 2016
Assay: 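Genes whose knock-down alters the TNF-alpha reporter response to LPS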 (primary screen). Cell system: human THP-1 monocytic leukaemia cells, TNF dual-luciferase reporter clone, PMA-differentiated to macrophage-like cells. Knock-down reagent: siRNA pool against human genes, 50 nM. Duration: LPS for 4 h, given about 3 days after siRNA transfection. Treatment: bacterial LPS (TLR4 ligand), 10 ng/ml. Detection: 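TNF firefly reporter luminescence divided by renilla, normalised to the plate median, then turned into a robust z-score for each replicate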. Direction: TNF reporter robust z-score: higher = stronger TNF reporter response to LPS. Hit rule: 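a well is active when its z-score exceeds 2.8 or falls below -1.5; control wells carry no call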.
Here is an unselected part of about 18,000 reagents tested. About 2,900 of all reagents (16%) count as active. 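Calls are made per well; low scores hint the gene aids the LPS response, high scores that it dampens it.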 Repeated entries: four replicate wells of each siRNA pool. No sequences are given here.

no.	target gene	TNF reporter robust z-score	outcome
1	ST6GALNAC4	1.48	inactive
2	ST6GALNAC4	0.35	inactive
3	ST6GALNAC4	1.07	inactive
4	ST6GALNAC4	0.83	inactive
5	RET	-0.16	inactive
6	RET	0.79	inactive
7	RET	-1.33	inactive
8	RET	-1.21	inactive
9	RBFA	0.55	inactive
10	RBFA	1.1	inactive
11	RBFA	-0.79	inactive
12	RBFA	0.1	inactive
13	LZTFL1	0.85	inactive
14	LZTFL1	1.35	inactive
15	LZTFL1	1.28	inactive
16	LZTFL1	2.13	inactive
17	CCDC13	-0.37	inactive
18	CCDC13	-0.39	inactive
19	CCDC13	0.46	inactive
20	CCDC13	-0.27	inactive
21	ULBP1	-1.88	active
22	ULBP1	-1.43	inactive
23	ULBP1	-1.71	active
24	ULBP1	-1.23	inactive
25	PXDC1	0.46	inactive
26	PXDC1	0.33	inactive
27	PXDC1	0.44	inactive
28	PXDC1	0.62	inactive
29	WDR82	0.23	inactive
30	WDR82	0.67	inactive
31	WDR82	-0.34	inactive
32	WDR82	-0.52	inactive
33	BTK	0.01	inactive
34	BTK	0.03	inactive
35	BTK	-0.36	inactive
36	BTK	0.21	inactive
37	TNFRSF1B	-0.78	inactive
38	TNFRSF1B	-0.05	inactive
39	TNFRSF1B	-0.15	inactive
40	TNFRSF1B	-0.55	inactive
41	UTP15	0.11	inactive
42	UTP15	0.2	inactive
43	UTP15	1.33	inactive
44	UTP15	0.82	inactive
45	SOX21	-0.34	inactive
46	SOX21	-0.51	inactive
47	SOX21	-0.57	inactive
48	SOX21	-0.28	inactive
49	TSG101	-0.67	inactive
50	TSG101	-0.56	inactive
51	TSG101	-1.17	inactive
52	TSG101	-0.84	inactive
53	ATF3	-1.53	active
54	ATF3	0.13	inactive
55	ATF3	-0.19	inactive
56	ATF3	-1.27	inactive
57	TMEM216	-0.62	inactive
58	TMEM216	-0.41	inactive
59	TMEM216	-0.69	inactive
60	TMEM216	-1.18	inactive
61	OR3A1	-0.34	inactive
62	OR3A1	0.05	inactive
63	OR3A1	0.83	inactive
64	SLC5A8	-0.81	inactive
65	SLC5A8	-0.72	inactive
66	SLC5A8	-0.85	inactive
67	SLC5A8	-0.78	inactive
68	VLDLR	-0.15	inactive
69	VLDLR	2.52	inactive
70	VLDLR	-0.01	inactive
71	VLDLR	3.67	active
72	CRY1	-0.23	inactive
73	CRY1	0.08	inactive
74	CRY1	-0.64	inactive
75	CRY1	0.32	inactive

Active calls, of those listed so far:
target gene	TNF reporter robust z-score	outcome
ULBP1	-1.88	active
ULBP1	-1.71	active
ATF3	-1.53	active
VLDLR	3.67	active
